# Laboratory results from PubChem BioAssay AID504847 (National Center for Advancing Translational Sciences (NCATS), 2011).
# Sequences of proteins named here, by UniProt entry; tags and fusion partners are left off. A change or cut given only in a name is not applied to a line headed by its entry.
# UniProt P11473: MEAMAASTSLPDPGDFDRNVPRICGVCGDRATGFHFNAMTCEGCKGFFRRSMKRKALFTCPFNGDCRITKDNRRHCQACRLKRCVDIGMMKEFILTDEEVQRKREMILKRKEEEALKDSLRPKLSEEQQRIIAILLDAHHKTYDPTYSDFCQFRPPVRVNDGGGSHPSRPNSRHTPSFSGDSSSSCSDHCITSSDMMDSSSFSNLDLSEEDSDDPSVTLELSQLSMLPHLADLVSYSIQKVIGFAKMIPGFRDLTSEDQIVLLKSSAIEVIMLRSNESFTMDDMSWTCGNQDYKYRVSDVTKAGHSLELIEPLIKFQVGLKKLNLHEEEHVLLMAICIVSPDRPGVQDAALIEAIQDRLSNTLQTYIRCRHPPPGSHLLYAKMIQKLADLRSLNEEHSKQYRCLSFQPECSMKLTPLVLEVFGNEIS
# Where “and” joins values, the source holds several entries; their conditions need not be identical. Equal values may be shown once. In all, about 400,000 compounds went through this assay and about 3,700 (0.93%) were called active. Inconclusive means that the source gave no clear call. Such entries were picked first, then a sample of the others. Calls follow the shape of the dose curve; as a rule, active = well fitted inhibition curve with a large enough effect; inconclusive = small, poorly fitted or top-dose-only effect, or another doubt; inactive = no such curve, though single readings can be large or run the other way. Potencies of inconclusive entries are doubtful fits and often do not repeat.
# Target: Vitamin D3 receptor (Homo sapiens) (UniProt P11473)
# Experiment: Inhibitors of the vitamin D receptor (VDR): qHTS
# Settings: VDR-SRC2-3 peptide fluorescence polarization, 2 h; max response, negative = inhibition: active compounds read low
# In short: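 FP read-out; VDR + SRC2-3 coactivator peptide; 23 nl compound by pintool; 2 h RT incubation; reagents held at 4 deg C, protected from light.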
# % is scaled to controls: 0 for no effect and ±100 for the full control effect; potency is read from the fitted curve at half-maximal effect.
SMILES,Potency,"max response, negative = inhibition"
CS(=O)(=O)c1oc(-c2ccc(F)cc2)nc1S(=O)(=O)c1ccc(Cl)cc1,"inconclusive: 7.08 µM [inhibitor, full curve, poor fit]",–
O=C(CNS(=O)(=O)c1ccccc1)OCC(=O)c1ccc([N+](=O)[O-])cc1,"inconclusive: 56.2 µM [inhibitor, partial curve, poor fit]",–
O=C(/C=C/c1ccccc1)NC(NC(=S)Nc1ccc(Cl)cc1Cl)C(Cl)(Cl)Cl (stereo not drawn),"inconclusive: 79.4 µM [inhibitor, partial curve, poor fit]",–
CCc1ccc(NCc2cc3ccc(OC)cc3n(CC(=O)Nc3ccc(C(C)C)cc3)c2=O)cc1,–,inactive: -7.28%
Cc1cc(NC(=O)c2ccc([N+](=O)[O-])cc2)no1,"inconclusive: 89.1 µM [inhibitor, single point]",–
CCOc1cc(-c2cc(-c3ccc(C)cc3)nc(N)c2C#N)ccc1O,–,inactive: 16.6%
CCCOC(=O)c1cc(-c2ccc(/C=C3/C(=O)N(C)C(=O)C(C#N)=C3C)o2)ccc1Cl,active: 50.1 µM,–
Cc1cc(C)c2nc(-c3ccccn3)cc(C(=O)Nc3ccc(S(=O)(=O)Nc4cc(C)on4)cc3)c2c1,"inconclusive: 70.8 µM [inhibitor, single point]",–
Oc1c(CN2CCOCC2)cc(COCc2ccccc2)c2cccnc12,"inconclusive: 79.4 µM [inhibitor, single point]",–
Cc1cc(C(=O)OCC(=O)N2C(C)CCCC2C)c2ccccc2n1 (stereo not drawn),"inconclusive: 70.8 µM [inhibitor, partial curve]",–
COC(=O)NC(=S)Nc1ccc(Oc2ccc(Cl)cc2)c(Cl)c1,–,inactive: 5.46%
COC1=CC(=O)C=C(OC)C1=O,active: 14.1 µM and active: 22.4 µM,–
CCC(C)NC(=O)CN(c1ccc(OC)cc1)S(=O)(=O)c1ccccc1 (stereo not drawn),"inconclusive: 89.1 µM [inhibitor, single point]",–
Oc1cc2c(cc1C(c1ccc(Br)cc1)N1CCCC1)OCO2 (stereo not drawn),active: 39.8 µM,–
CC(C)C[C@@H](CN=[N+]=[N-])N1CCN(CC(C)C)CCC1=O,"inconclusive: 100 µM [inhibitor, partial curve, poor fit]",–
Nc1cc2c3ccccc3ccc2c2ccccc12,"inconclusive: 56.2 µM [inhibitor, partial curve, poor fit]",–
CC(CCC(=O)O)C1CCC2C3CC[C@H]4CC(O)CC[C@@]4(C)C3C=C[C@]12C (stereo partly drawn),active: 28.2 µM,–
O=c1cc(-c2ccccc2)n(S(=O)(=O)c2ccc3ccccc3c2)o1,"inconclusive: 0.794 µM [inhibitor, full curve, poor fit]",–

# In a second layout: entries from further up.
SMILES	Potency	max response, negative = inhibition
CC(C)C[C@@H](CN=[N+]=[N-])N1CCN(CC(C)C)CCC1=O	inconclusive: 100 µM [inhibitor, partial curve, poor fit]	–
Nc1cc2c3ccccc3ccc2c2ccccc12	inconclusive: 56.2 µM [inhibitor, partial curve, poor fit]	–
